# Results as given in PubChem BioAssay AID188 (DTP/NCI, 2004).
# The mice bore no tumour; each value counts animals alive of those treated. Counts of survivors are from the toxicity check (mostly the fifth day) where no day follows; animals may have died later. Schedule codes are those of the source, taken here to give the interval after Q, in days (D) or hours (H), and the number of doses after X. Some structures stand for samples that the source files as different forms (salt, stereo form or complex); doses refer to the form tested. Brackets with × say how often a value occurs here. Some entries hold several experiments; their values stand side by side, smallest first.
# Test system: CD2F1 mice, nontumored, toxicity/survival
# Experiment: NCI In Vivo Anticancer Drug Screen. Data for tumor model Nontumored Animals (Toxicity Test) in CD2F1 (CDF1) mice
compound,measurement,setting,value
NC(C/[N+]([O-])=N/O)C(=O)O (stereo not given),survivor count,"dose: 0.78 mg/kg/injection, schedule: Q01DX009 (ip), vehicle: water",10 of 10 (2×)
same,survivor count,"dose: 0.78 mg/kg/injection, schedule: Q04DX003 (ip), vehicle: water",10 of 10 (2×)
same,survivor count,"dose: 1.57 mg/kg/injection, schedule: Q01DX009 (ip), vehicle: water",10 of 10 (2×)
same,survivor count,"dose: 1.57 mg/kg/injection, schedule: Q04DX003 (ip), vehicle: water",10 of 10 (2×)
same,survivor count,"dose: 3.13 mg/kg/injection, schedule: Q01DX009 (ip), vehicle: water",10 of 10 (2×)
same,survivor count,"dose: 3.13 mg/kg/injection, schedule: Q04DX003 (ip), vehicle: water",10 of 10 (2×)
same,survivor count,"dose: 6.25 mg/kg/injection, schedule: Q01DX009 (ip), vehicle: water",10 of 10 (2×)
same,survivor count,"dose: 6.25 mg/kg/injection, schedule: Q04DX003 (ip), vehicle: water",10 of 10 (2×)
same,survivor count,"dose: 8.0 mg/kg/injection, schedule: Q03HX008 (ip), vehicle: saline",8 of 8
same,survivor count,"dose: 8.0 mg/kg/injection, schedule: Q03HX016 (ip), vehicle: saline",8 of 8
same,survivor count,"dose: 8.0 mg/kg/injection, schedule: Q03HX024 (ip), vehicle: saline",8 of 8
same,survivor count,"dose: 12.5 mg/kg/injection, schedule: Q01DX009 (ip), vehicle: water",10 of 10 (2×)
same,survivor count,"dose: 12.5 mg/kg/injection, schedule: Q04DX003 (ip), vehicle: water",10 of 10 (2×)
same,survivor count,"dose: 16.0 mg/kg/injection, schedule: Q01DX009 (ip), vehicle: saline",8 of 8
same,survivor count,"dose: 16.0 mg/kg/injection, schedule: Q01DX009 (sc), vehicle: saline",8 of 8
same,survivor count,"dose: 16.0 mg/kg/injection, schedule: Q03HX008 (ip), vehicle: saline",8 of 8
same,survivor count,"dose: 16.0 mg/kg/injection, schedule: Q03HX016 (ip), vehicle: saline",8 of 8
same,survivor count,"dose: 16.0 mg/kg/injection, schedule: Q03HX024 (ip), vehicle: saline",8 of 8
same,survivor count,"dose: 19.4 mg/kg/injection, schedule: Q01DX009 (ip), vehicle: alkali diluted with saline",5 of 5
same,survivor count,"dose: 25.0 mg/kg/injection, schedule: Q01DX009 (ip), vehicle: water",10 of 10 (2×)
same,survivor count,"dose: 25.0 mg/kg/injection, schedule: Q04DX003 (ip), vehicle: water",10 of 10 (2×)
same,survivor count,"dose: 31.3 mg/kg/injection, schedule: Q01DX009 (ip), vehicle: water",10 of 10 (2×)
same,survivor count,"dose: 31.3 mg/kg/injection, schedule: Q04DX003 (ip), vehicle: water",10 of 10 (2×)
same,survivor count,"dose: 32.0 mg/kg/injection, schedule: Q01DX009 (ip), vehicle: saline",8 of 8
same,survivor count,"dose: 32.0 mg/kg/injection, schedule: Q01DX009 (sc), vehicle: saline",8 of 8
same,survivor count,"dose: 32.0 mg/kg/injection, schedule: Q03HX008 (ip), vehicle: saline",8 of 8
same,survivor count,"dose: 32.0 mg/kg/injection, schedule: Q03HX016 (ip), vehicle: saline",8 of 8
same,survivor count,"dose: 32.0 mg/kg/injection, schedule: Q03HX024 (ip), vehicle: saline",8 of 8
same,survivor count,"dose: 32.4 mg/kg/injection, schedule: Q01DX009 (ip), vehicle: alkali diluted with saline",5 of 5
same,survivor count,"dose: 54.0 mg/kg/injection, schedule: Q01DX009 (ip), vehicle: alkali diluted with saline",5 of 5
same,survivor count,"dose: 62.5 mg/kg/injection, schedule: Q01DX009 (ip), vehicle: water",10 of 10 (2×)
same,survivor count,"dose: 62.5 mg/kg/injection, schedule: Q04DX003 (ip), vehicle: water",10 of 10 (2×)
same,survivor count,"dose: 64.0 mg/kg/injection, schedule: Q01DX001 (ip), vehicle: saline",8 of 8
same,survivor count,"dose: 64.0 mg/kg/injection, schedule: Q01DX009 (ip), vehicle: saline",8 of 8
same,survivor count,"dose: 64.0 mg/kg/injection, schedule: Q01DX009 (oral), vehicle: saline",8 of 8
same,survivor count,"dose: 64.0 mg/kg/injection, schedule: Q01DX009 (sc), vehicle: saline",8 of 8
same,survivor count,"dose: 64.0 mg/kg/injection, schedule: Q03HX008 (ip), vehicle: saline",8 of 8
same,survivor count,"dose: 64.0 mg/kg/injection, schedule: Q03HX016 (ip), vehicle: saline",8 of 8
same,survivor count,"dose: 64.0 mg/kg/injection, schedule: Q03HX024 (ip), vehicle: saline",8 of 8
same,survivor count,"dose: 64.0 mg/kg/injection, schedule: Q04DX003 (ip), vehicle: saline",8 of 8
same,survivor count,"dose: 64.0 mg/kg/injection, schedule: Q04DX003 (oral), vehicle: saline",8 of 8
same,survivor count,"dose: 64.0 mg/kg/injection, schedule: Q04DX003 (sc), vehicle: saline",8 of 8
same,survivor count,"dose: 64.0 mg/kg/injection, schedule: Q08DX002 (ip), vehicle: saline",8 of 8
same,survivor count,"dose: 90.0 mg/kg/injection, schedule: Q01DX009 (ip), vehicle: alkali diluted with saline",5 of 5
same,survivor count,"dose: 125.0 mg/kg/injection, schedule: Q01DX009 (ip), vehicle: water",10 of 10 (2×)
same,survivor count,"dose: 125.0 mg/kg/injection, schedule: Q03HX024 (ip), vehicle: saline",7 of 8
same,survivor count,"dose: 125.0 mg/kg/injection, schedule: Q04DX003 (ip), vehicle: water",10 of 10 (2×)
same,survivor count,"dose: 128.0 mg/kg/injection, schedule: Q01DX001 (ip), vehicle: saline",8 of 8
same,survivor count,"dose: 128.0 mg/kg/injection, schedule: Q01DX009 (ip), vehicle: saline",8 of 8
same,survivor count,"dose: 128.0 mg/kg/injection, schedule: Q01DX009 (oral), vehicle: saline",8 of 8
same,survivor count,"dose: 128.0 mg/kg/injection, schedule: Q01DX009 (sc), vehicle: saline",8 of 8
same,survivor count,"dose: 128.0 mg/kg/injection, schedule: Q03HX008 (ip), vehicle: saline",8 of 8
same,survivor count,"dose: 128.0 mg/kg/injection, schedule: Q03HX016 (ip), vehicle: saline",8 of 8
same,survivor count,"dose: 128.0 mg/kg/injection, schedule: Q04DX003 (ip), vehicle: saline",8 of 8
same,survivor count,"dose: 128.0 mg/kg/injection, schedule: Q04DX003 (oral), vehicle: saline",8 of 8
same,survivor count,"dose: 128.0 mg/kg/injection, schedule: Q04DX003 (sc), vehicle: saline",8 of 8
same,survivor count,"dose: 128.0 mg/kg/injection, schedule: Q08DX002 (ip), vehicle: saline",8 of 8
same,survivor count,"dose: 150.0 mg/kg/injection, schedule: Q01DX009 (ip), vehicle: alkali diluted with saline",5 of 5
same,survivor count,"dose: 250.0 mg/kg/injection, schedule: Q01DX009 (ip), vehicle: water",8 of 10 and 10 of 10
same,survivor count,"dose: 250.0 mg/kg/injection, schedule: Q04DX003 (ip), vehicle: water",10 of 10 (2×)
same,survivor count,"dose: 256.0 mg/kg/injection, schedule: Q01DX001 (ip), vehicle: saline",8 of 8
same,survivor count,"dose: 256.0 mg/kg/injection, schedule: Q01DX009 (ip), vehicle: saline",6 of 8
same,survivor count,"dose: 256.0 mg/kg/injection, schedule: Q01DX009 (oral), vehicle: saline",7 of 8
same,survivor count,"dose: 256.0 mg/kg/injection, schedule: Q01DX009 (sc), vehicle: saline",8 of 8
same,survivor count,"dose: 256.0 mg/kg/injection, schedule: Q03HX008 (ip), vehicle: saline",5 of 8
same,survivor count,"dose: 256.0 mg/kg/injection, schedule: Q03HX016 (ip), vehicle: saline",2 of 8
same,survivor count,"dose: 256.0 mg/kg/injection, schedule: Q03HX024 (ip), vehicle: saline",3 of 8
same,survivor count,"dose: 256.0 mg/kg/injection, schedule: Q04DX003 (ip), vehicle: saline",8 of 8
same,survivor count,"dose: 256.0 mg/kg/injection, schedule: Q04DX003 (oral), vehicle: saline",8 of 8
same,survivor count,"dose: 256.0 mg/kg/injection, schedule: Q04DX003 (sc), vehicle: saline",8 of 8
same,survivor count,"dose: 256.0 mg/kg/injection, schedule: Q08DX002 (ip), vehicle: saline",8 of 8
same,survivor count,"dose: 500.0 mg/kg/injection, schedule: Q01DX009 (ip), vehicle: water",4 of 10 and 5 of 10
same,survivor count,"dose: 500.0 mg/kg/injection, schedule: Q04DX003 (ip), vehicle: water",10 of 10 (2×)
same,survivor count,"dose: 512.0 mg/kg/injection, schedule: Q01DX001 (ip), vehicle: saline",8 of 8
same,survivor count,"dose: 512.0 mg/kg/injection, schedule: Q01DX009 (ip), vehicle: saline",2 of 8
same,survivor count,"dose: 512.0 mg/kg/injection, schedule: Q01DX009 (oral), vehicle: saline",5 of 8
same,survivor count,"dose: 512.0 mg/kg/injection, schedule: Q01DX009 (sc), vehicle: saline",3 of 8
same,survivor count,"dose: 512.0 mg/kg/injection, schedule: Q04DX003 (ip), vehicle: saline",8 of 8
same,survivor count,"dose: 512.0 mg/kg/injection, schedule: Q04DX003 (oral), vehicle: saline",8 of 8
same,survivor count,"dose: 512.0 mg/kg/injection, schedule: Q04DX003 (sc), vehicle: saline",8 of 8
same,survivor count,"dose: 512.0 mg/kg/injection, schedule: Q08DX002 (ip), vehicle: saline",8 of 8
same,survivor count,"dose: 1000.0 mg/kg/injection, schedule: Q01DX009 (ip), vehicle: water",0 of 10 and 5 of 10
same,survivor count,"dose: 1000.0 mg/kg/injection, schedule: Q04DX003 (ip), vehicle: water",7 of 10 and 10 of 10
same,survivor count,"dose: 1024.0 mg/kg/injection, schedule: Q01DX001 (ip), vehicle: saline",5 of 8
same,survivor count,"dose: 1024.0 mg/kg/injection, schedule: Q01DX009 (oral), vehicle: saline",0 of 8
same,survivor count,"dose: 1024.0 mg/kg/injection, schedule: Q04DX003 (ip), vehicle: saline",7 of 8
same,survivor count,"dose: 1024.0 mg/kg/injection, schedule: Q04DX003 (oral), vehicle: saline",6 of 8
same,survivor count,"dose: 1024.0 mg/kg/injection, schedule: Q04DX003 (sc), vehicle: saline",7 of 8
same,survivor count,"dose: 1024.0 mg/kg/injection, schedule: Q08DX002 (ip), vehicle: saline",8 of 8
same,survivor count,"dose: 2048.0 mg/kg/injection, schedule: Q01DX001 (ip), vehicle: saline",0 of 8
same,survivor count,"dose: 2048.0 mg/kg/injection, schedule: Q01DX009 (oral), vehicle: saline",0 of 8
same,survivor count,"dose: 2048.0 mg/kg/injection, schedule: Q04DX003 (ip), vehicle: saline",0 of 8
same,survivor count,"dose: 2048.0 mg/kg/injection, schedule: Q04DX003 (oral), vehicle: saline",2 of 8
same,survivor count,"dose: 2048.0 mg/kg/injection, schedule: Q04DX003 (sc), vehicle: saline",0 of 8
same,survivor count,"dose: 2048.0 mg/kg/injection, schedule: Q08DX002 (ip), vehicle: saline",0 of 8
